Experimental data: article PMC8522691
No constants are given. Whether binding was seen depends on the method and setting. Some entries that bind do so weakly or less than the wild type.

Chains of the proteins cited; added tags and fusions are not shown. Lines headed by an entry give the natural chain unless they say otherwise; changes in a name come on top. Residues count along the entry.
UniProt P21513: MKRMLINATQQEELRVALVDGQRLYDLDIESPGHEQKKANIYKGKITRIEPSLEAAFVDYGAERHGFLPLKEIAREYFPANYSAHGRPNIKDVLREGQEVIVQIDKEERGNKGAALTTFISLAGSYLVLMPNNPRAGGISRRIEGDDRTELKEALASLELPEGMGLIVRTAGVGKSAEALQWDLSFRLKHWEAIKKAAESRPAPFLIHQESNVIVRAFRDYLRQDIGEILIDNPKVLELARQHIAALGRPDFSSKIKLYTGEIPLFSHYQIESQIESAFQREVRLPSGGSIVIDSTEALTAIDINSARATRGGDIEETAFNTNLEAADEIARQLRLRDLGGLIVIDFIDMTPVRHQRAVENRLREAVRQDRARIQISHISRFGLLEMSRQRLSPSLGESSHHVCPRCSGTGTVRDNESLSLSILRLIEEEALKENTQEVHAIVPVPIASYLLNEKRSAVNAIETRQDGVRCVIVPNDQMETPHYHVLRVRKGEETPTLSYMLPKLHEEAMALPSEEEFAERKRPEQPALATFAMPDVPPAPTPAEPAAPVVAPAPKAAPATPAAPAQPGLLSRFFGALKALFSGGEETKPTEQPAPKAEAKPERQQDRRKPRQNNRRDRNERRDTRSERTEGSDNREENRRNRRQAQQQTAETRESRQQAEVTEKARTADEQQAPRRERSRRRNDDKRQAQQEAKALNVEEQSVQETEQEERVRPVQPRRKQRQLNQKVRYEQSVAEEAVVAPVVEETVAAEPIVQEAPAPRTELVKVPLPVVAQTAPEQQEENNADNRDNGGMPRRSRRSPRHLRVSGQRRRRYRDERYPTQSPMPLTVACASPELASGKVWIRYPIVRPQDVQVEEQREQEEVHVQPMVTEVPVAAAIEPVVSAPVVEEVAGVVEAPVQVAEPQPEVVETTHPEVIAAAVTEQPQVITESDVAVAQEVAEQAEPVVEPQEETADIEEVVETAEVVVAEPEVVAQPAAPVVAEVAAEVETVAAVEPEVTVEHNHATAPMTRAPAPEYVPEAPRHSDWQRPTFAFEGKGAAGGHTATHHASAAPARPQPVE
RNase E 1-850 (of the truncated degradosome): residues 1-850 of P21513
UniProt P0A6P9: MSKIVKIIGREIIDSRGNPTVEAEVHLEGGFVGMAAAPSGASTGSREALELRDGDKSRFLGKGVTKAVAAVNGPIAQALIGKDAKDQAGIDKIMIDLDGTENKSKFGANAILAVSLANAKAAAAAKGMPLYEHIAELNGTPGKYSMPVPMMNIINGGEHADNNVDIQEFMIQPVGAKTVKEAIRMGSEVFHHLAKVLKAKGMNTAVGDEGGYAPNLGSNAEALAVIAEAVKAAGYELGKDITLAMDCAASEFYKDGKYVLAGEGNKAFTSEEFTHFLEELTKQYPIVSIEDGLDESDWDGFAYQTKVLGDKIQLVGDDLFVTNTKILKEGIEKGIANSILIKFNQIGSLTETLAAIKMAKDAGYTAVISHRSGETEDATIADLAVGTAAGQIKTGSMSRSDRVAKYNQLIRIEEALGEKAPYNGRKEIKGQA

Legend:
[1] = biological target: RNase E 1-1061 (chromosomally strep-tagged RNase E of the full degradosome) (Escherichia coli (endogenous in strain NCM3416)) (UniProt P21513); assay: co-purification (Strep affinity column, heparin column, size exclusion); lysate of E. coli NCM3416 with chromosomally strep-tagged RNase E on a HiTrap Strep column, washed with 1 M NaCl, 100 mM KCl, 0.02% beta-DDM; then HiTrap Heparin and Superose 6 10/300 in 50 mM HEPES pH 7.5, 400 mM NaCl, 100 mM KCl, 5 mM DTT, 0.02% beta-DDM
[2] = biological target: RNase E 1-850 (of the truncated degradosome) (Escherichia coli) (UniProt P21513); assay: co-purification (nickel affinity column, cation exchange, size exclusion); lysate of E. coli ENS134-10 co-expressing RNase E 1-850, RhlB and enolase on a nickel-charged HiTrap Chelating column, washed with 1 M NaCl, 100 mM imidazole, 0.02% beta-DDM; then SP HP column and Superose 6 10/300 in 50 mM HEPES pH 7.5, 400 mM NaCl, 100 mM KCl, 5 mM DTT, 0.02% beta-DDM

Row | binding [1] | binding [2] | Molecule
1 | binds | – | enolase (of the full degradosome) (from UniProt P0A6P9 1-432) (enzyme)
2 | – | binds | full-length enolase (of the truncated degradosome) (from UniProt P0A6P9 1-432) (enzyme)
3 | binds | – | PNPase (of the full degradosome) (enzyme, UniProt P05055 1-711) MLNPIVRKFQYGQHTVTLETGMMARQATAAVMVSMDDTAVFVTVVGQKKAKPGQDFFPLTVNYQERTYAAGRIPGSFFRREGRPSEGETLIARLIDRPIRPLFPEGFVNEVQVIATVVSVNPQVNPDIVAMIGASAALSLSGIPFNGPIGAARVGYINDQYVLNPTQDELKESKLDLVVAGTEAAVLMVESEAQLLSEDQMLGAVVFGHEQQQVVIQNINELVKEAGKPRWDWQPEPVNEALNARVAALAEARLSDAYRITDKQERYAQVDVIKSETIATLLAEDETLDENELGEILHAIEKNVVRSRVLAGEPRIDGREKDMIRGLDVRTGVLPRTHGSALFTRGETQALVTATLGTARDAQVLDELMGERTDTFLFHYNFPPYSVGETGMVGSPKRREIGHGRLAKRGVLAVMPDMDKFPYTVRVVSEITESNGSSSMASVCGASLALMDAGVPIKAAVAGIAMGLVKEGDNYVVLSDILGDEDHLGDMDFKVAGSRDGISALQMDIKIEGITKEIMQVALNQAKGARLHILGVMEQAINAPRGDISEFAPRIHTIKINPDKIKDVIGKGGSVIRALTEETGTTIEIEDDGTVKIAATDGEKAKHAIRRIEEITAEIEVGRVYTGKVTRIVDFGAFVAIGGGKEGLVHISQIADKRVEKVTDYLQMGQEVPVKVLEVDRQGRIRLSIKEATEQSQPAAAPEAPAAEQGE
